Data as given in article PMC5490264 (Nature Communications, 2017).
These are yes or no findings as the source states them, for the method shown. In cells and extracts the contact can be indirect. Some entries that bind do so weakly or less than the wild type.

Sequences of proteins named here, by UniProt entry; tags and fusion partners are left off. A change or cut given only in a name is not applied to a line headed by its entry.
UniProt Q79NI3: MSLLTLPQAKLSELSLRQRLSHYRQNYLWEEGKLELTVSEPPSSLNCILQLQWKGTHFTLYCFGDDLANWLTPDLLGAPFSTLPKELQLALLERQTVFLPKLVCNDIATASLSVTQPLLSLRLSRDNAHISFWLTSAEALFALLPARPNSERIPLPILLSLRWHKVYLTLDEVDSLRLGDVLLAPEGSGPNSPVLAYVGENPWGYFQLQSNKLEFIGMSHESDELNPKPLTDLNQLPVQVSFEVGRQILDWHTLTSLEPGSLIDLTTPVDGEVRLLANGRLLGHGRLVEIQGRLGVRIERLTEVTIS

Biological target: Halo-YscQ (Yersinia enterocolitica) (UniProt Q79NI3)
Assay: pull-down; Halo-YscQ bound to Magne HaloTag beads from Y. enterocolitica lysate (strains with and without YscN); eluate probed by immunoblot with a polyclonal anti-YscQ antibody

“YscQC (from UniProt Q79NI3 218-307) (domain or fragment)” was tested, and the binding was “binds”.
